In PubChem BioAssay AID488835 (Broad Institute, 2010) one finds activity change, negative = inhibition data, which are given here for 88 compounds.

Sequences of proteins named here, by UniProt entry; tags and fusion partners are left off. Residues count along the entry.
UniProt Q9H3R0, 1-420 limits assumed: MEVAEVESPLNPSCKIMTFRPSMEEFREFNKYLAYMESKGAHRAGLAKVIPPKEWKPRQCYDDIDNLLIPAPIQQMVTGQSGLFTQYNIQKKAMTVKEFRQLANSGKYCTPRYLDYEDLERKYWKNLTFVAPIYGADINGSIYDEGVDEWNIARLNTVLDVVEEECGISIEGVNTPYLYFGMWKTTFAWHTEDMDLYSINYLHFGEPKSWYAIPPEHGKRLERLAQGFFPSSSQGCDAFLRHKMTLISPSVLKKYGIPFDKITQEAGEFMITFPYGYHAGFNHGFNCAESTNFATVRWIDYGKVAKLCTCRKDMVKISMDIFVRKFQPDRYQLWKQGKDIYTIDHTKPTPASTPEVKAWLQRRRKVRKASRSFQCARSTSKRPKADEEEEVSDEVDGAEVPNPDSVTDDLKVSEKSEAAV

Structures are written as SMILES. Screen size: about 1,400 compounds; about 140 (10%) were called active.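 How the source made its calls: active means Half-maximal inhibitory dose from the fit at or below ten times the top valid tested dose; inconclusive means Invalid fit, or flat curve showing 30 to 70% inhibition; inactive means the rest.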 This is a selection; strong and weak results do not stand in their true shares. Measured potencies and affinities stand elsewhere.

This assay deals with Lysine-specific demethylase 4C (Homo sapiens) (UniProt Q9H3R0). In words: inhibition of JMJD2C H3K9me3 demethylation – biochemical, DELFIA europium, cherry-picked samples, dose response (AID 488835).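 Further: signal is the H3K9me2 demethylation product detected by a dimethyl-specific antibody.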 Conditions: GST-JMJD2C(1-420); at 6 µM (top of the series) unless noted.
With `Cc1cc(C)cc(C(=O)N2CCC(C(N)=O)CC2)c1`, the activity change, negative = inhibition is inactive: 3.06%. For `COc1ccc2c(c1)CC(C1(O)C(=O)N(C)c3ccccc31)C2=O` (stereo not drawn) the value was inactive: 1.43%; for `COc1ccc(N2CCN(C(=O)CSc3nnc(-c4ccco4)n3C)CC2)cc1`, inactive: 4.94%. Regarding `COc1ccc(NC(=O)C2OC3OC(C)(C)OC3C3OC(C)(C)OC23)cc1` (stereo not drawn), the activity change, negative = inhibition is inactive: -6.23%. Consider `COc1cc(CN2CCN(C(=O)CC(C)C)CC2)cc(OC)c1OC`, for which the activity change, negative = inhibition is inactive: -3.19%. For `CC(=O)N1C(c2ccccc2O)C[C@]2(C)CC(=O)NC12` (stereo partly drawn) the value was inactive: -1.35%. Take `Cc1ccc(C(O)(C(=O)NNc2ccccn2)c2ccc(C)cc2)cc1`: the activity change, negative = inhibition is inactive: 0.26%. Consider `CC1CN(Cc2ccccc2)c2nc3c(c(=O)n(C)c(=O)n3C)n2C1` (stereo not drawn), for which the activity change, negative = inhibition is inactive: 4.53%.

With `CN(C)CCNC(=O)c1onc(CSc2ccncc2)c1C(=O)NCCN(C)C`, the activity change, negative = inhibition is inactive: -0.433%. With `COc1ccccc1/C=C1\SC(=S)N(CCC(=O)NNC(=O)c2ccccc2OC)C1=O`, the activity change, negative = inhibition was inactive: -3.17%. For `CN(C(=O)c1ccc(NC(=O)Cc2ccc(NC(=O)C3CCN(C(=O)C4CCC4)CC3)cc2)cc1)C1CC1` the value was inactive: -3.69%.

Consider `NC(=O)COC(=O)Cc1coc2cc3c(cc12)CCC3`, for which the activity change, negative = inhibition is inactive: -0.0989%. To `CCN(Cc1nc(-c2ccccc2)no1)C(=O)c1ccco1` belongs inactive: 9.74%; to `Cc1ccc(S(=O)(=O)NC(=O)NC(C)Cc2ccccc2)cc1` (stereo not drawn), inactive: 0.87%; to `Cc1cccc(C(=O)NCC(c2ccco2)N2CCc3ccccc32)c1` (stereo not drawn), inactive: 4.14%. Regarding `Cc1noc(C)c1COc1ccc(C(=O)NCC2CCCO2)cc1` (stereo not drawn), the activity change, negative = inhibition was inactive: 6.29%. To `Cc1nnc(SCc2nnc(-c3ccccc3)o2)n(N)c1=O` belongs inactive: -1.28%. Turning to `CCC(C)[C@H](NC(=O)NCc1ccccc1Cl)C(=O)O` (stereo partly drawn), the activity change, negative = inhibition was inactive: -2.17%.

On to `Cc1nc2ccc(NC(=O)c3oc4ccc(F)cc4c3C)cc2s1`, for which the activity change, negative = inhibition was inactive: -3.77%.

For `CN(C)/C=N/c1sccc1C(N)=O`, the activity change, negative = inhibition is inactive: 1.63%.

Regarding `Cc1ccccc1N=C1N=C(N)c2ccccc21`, the activity change, negative = inhibition is inactive: -0.0737%. For `C/C(CC(=O)Nc1cccc(Cl)c1Cl)=N\NC(=O)c1ccccc1N`, the activity change, negative = inhibition is inactive: -1.55%. Turning to `CCN(CC)c1ccc(C(=O)OCC(=O)N2CCCC2)cc1`, the activity change, negative = inhibition is inactive: 8.43%. For `O=C(c1cc2c(s1)CCC2)N1C(=O)c2ccccc2S1(=O)=O` the value was inactive: 2.58%; for `COc1ccc(/C=N/Nc2ncnc(Cl)c2N)cc1OC`, inactive: -1.24%. To `C[C@@H]1CN([C@H](C)CO)C(=O)c2cc(NC(=O)Cc3ccccc3)ccc2O[C@H]1CN(C)Cc1ccc(Oc2ccccc2)cc1` belongs inactive: 4.38%; to `COc1cc(N)c(C(O)c2nccc3cc(OC)c(OC)cc23)cc1OC` (stereo not drawn), inactive: 2.3%. As to `O=C(C1CCCCC1)N1CCC(c2nc3c(nnn3Cc3c(F)cccc3Cl)c(=O)[nH]2)CC1`, the activity change, negative = inhibition was inactive: 1.1%.

In the case of `C/C(=N\N1CCN(c2ccccc2)CC1)c1ccncc1`, the activity change, negative = inhibition is inactive: -0.735%. Turning to `CC(SCc1ccccc1)C(=O)Nc1ccccc1` (stereo not drawn), the activity change, negative = inhibition was inactive: -3.98%. As for `CC1=C(C(=O)OCC2CCCO2)C(c2ccccc2OC(C)C)C2=C(CC(c3ccco3)CC2=O)N1` (stereo not drawn), the activity change, negative = inhibition is inactive: 2.87% [at 1.6 µM].

`Cc1cnc(NC(=O)c2ccc(-c3nc4ccccc4s3)o2)s1`: the activity change, negative = inhibition was inactive: -1.09%. As to `Cc1cccc2cc(C#N)c(SCCN3CCCCC3)nc12`, the activity change, negative = inhibition is inactive: 6.01%.

In the case of `OC(COc1ccc2ccccc2c1Br)Cn1cnc(-c2ccccc2)c1` (stereo not drawn), the activity change, negative = inhibition is inactive: -3.27%. Take `COc1ccc(CCNC(=O)COC(=O)c2ccc(Br)o2)cc1`: the activity change, negative = inhibition is inactive: 1.54%. `O=C(O)c1ccccc1OCCOc1ccccc1C(=O)O`: the activity change, negative = inhibition is inactive: 11.2%. Turning to `CCC/C(=N\NC(=O)c1csc(C)c1C)c1cccs1`, the activity change, negative = inhibition was inactive: 8.49%. Consider `O=C(Nc1ccccc1)Nc1ccc(S(=O)(=O)N2CCCCC2)cc1`, for which the activity change, negative = inhibition was inactive: -7.48%. As to `CCCCn1c(N)c(N(CC)C(=O)c2ccco2)c(=O)[nH]c1=O`, the activity change, negative = inhibition is inactive: -4.81%.

Take `CCCc1c(NC(=O)Nc2ccc(F)cc2)cnn1-c1ccccc1`: the activity change, negative = inhibition is inactive: 7.81%. Take `C#CC[N+]1(CC#Cc2ccc(C#CC[N+]3(CC#C)CCOCC3)cc2)CCOCC1`: the activity change, negative = inhibition was inactive: -11%. Turning to `N#Cc1cc(-c2ccccc2)nnc1Sc1ccccc1`, the activity change, negative = inhibition was inactive: -0.418%. To `CCCCC(=O)NC(Nc1nc(C2CC2)cs1)(C(=O)OCC)C(F)(F)F` (stereo not drawn) belongs inactive: -1.23%; to `COC(=O)[C@]1(C)N[C@H](CN(C)S(=O)(=O)c2ccc(F)cc2)[C@@H]2C(=O)N(C)C(=O)[C@@H]21`, inactive: 2.62%.

For the compound `Cc1cc(-c2n[nH]c(=S)o2)c(C)n1-c1ccccc1`, the activity change, negative = inhibition is inactive: -1.23%. To `Cc1ccc(/C=N/NC(=O)c2ccc(C(=O)N/N=C/c3ccc(C)s3)o2)s1` belongs inactive: 13.9%; to `O=C(NCCCn1ccnc1)c1cc2c(ccc3ccccc32)o1`, inactive: 9.56%; to `CCCOC(=O)c1ccc(-c2ccc(C=O)o2)cc1`, inactive: 5.23%. To `COC(=O)c1cc(OC)c(OC)cc1NC(=O)Cn1nnc(-c2ccccc2Cl)n1` belongs inactive: 4.22%.

Take `C[C@H](CO)N1C[C@H](C)[C@H](CN(C)S(=O)(=O)c2ccccc2)Oc2c(NS(C)(=O)=O)cccc2C1=O`: the activity change, negative = inhibition was inactive: 1.69%.

As for `Cc1ccccc1NS(=O)(=O)c1ccc(C(=O)NCC(c2ccco2)N(C)C)cc1` (stereo not drawn), the activity change, negative = inhibition is inactive: -0.352%. To `CCCc1nn2c(=O)cc(CSCC(=O)Nc3ccccc3)nc2s1` belongs inactive: -4.93%; to `Cc1ccc([N+](=O)[O-])cc1N=C(c1cccc([N+](=O)[O-])c1)N1CCOCC1`, inactive: 4.23%. `O=C1c2ccccc2C(=O)N1CCC(c1ccccc1)c1ccco1` (stereo not drawn): the activity change, negative = inhibition is inactive: -0.258%. As for `O=[N+]([O-])c1cc(Cl)ccc1Nc1ccccc1`, the activity change, negative = inhibition is inactive: 2.42%. Regarding `CCc1ccc(NC(=O)CSc2nnc(CNC(=O)c3c(F)cccc3Cl)o2)cc1`, the activity change, negative = inhibition is inactive: 0.0635%. For `N#CC1(NC(=O)Cn2ncc(Cl)c(Cl)c2=O)CCCCC1` the value was inactive: 0.641%; for `Cc1cc(C)c(OCC(=O)Nc2ccc(NC(=O)c3ccco3)cc2)c([N+](=O)[O-])c1`, inactive: -0.32%; for `CCOC(=O)CCCCCC(=O)Nc1ccc2c(c1)CC(=O)N([C@H](C)CO)C[C@@H](C)[C@H](CN(C)Cc1ccc3c(c1)OCO3)O2`, inactive: 0.382%. To `C[C@@H]1CN([C@@H](C)CO)C(=O)c2cc(NC(=O)Nc3ccc4c(c3)OCO4)ccc2O[C@H]1CN(C)S(=O)(=O)c1ccc(F)cc1` belongs inactive: -2.71%; to `COc1ccc2c(c1)OC[C@H]1[C@H]2N2C(=O)CNC(=O)[C@@]2(C)[C@H]1c1ccccc1`, inactive: -2.38%.

Consider `C[C@H](N)c1nnc(SCC(=O)N(C)C)o1`, for which the activity change, negative = inhibition was inactive: 3.49%. To `OCc1ccc(OCCCOc2cccc3cccnc23)cc1` belongs inactive: -4.13%. For `Nc1nn2c(-c3ccccc3)cc(=O)[nH]c2c1N=Nc1ccc(O)cc1`, the activity change, negative = inhibition was inactive: 2.37%.

`O=C(/C=C\c1ccc2c(c1)OCO2)NC1(C(=O)Nc2ccc3c(c2)OCO3)CCCCC1`: the activity change, negative = inhibition is inactive: 4.16%. Regarding `CCC(=O)Nc1ccc(NC(=O)CSc2nnnn2C(C)C)cc1`, the activity change, negative = inhibition is inactive: 11.2%. With `O=C(CSc1nc(-c2ccccc2)cc(=O)[nH]1)NCc1ccc2c(c1)OCO2`, the activity change, negative = inhibition is inactive: 8.8%. For the compound `O=C(NCC(c1ccco1)N1CCCCC1)c1ccc(OCc2ccccc2)cc1` (stereo not drawn), the activity change, negative = inhibition was inactive: -9.65%.

On to `CCOC(=O)N1CCN(c2ccc(F)cc2[N+](=O)[O-])CC1`, for which the activity change, negative = inhibition is inactive: 2.68%. `O=C(Oc1cccc2cccnc12)c1cccc(N2C(=O)C3C4CCC(C4)C3C2=O)c1` (stereo not drawn): the activity change, negative = inhibition was inactive: 2.1%.

With `CCc1ccc(-c2nc(CN3CCC(C(=O)NCc4ccc(F)cc4)CC3)c(C)o2)cc1`, the activity change, negative = inhibition is inactive: 2.76%.

For `Cc1ccc(S(=O)(=O)N2[C@@H](c3ccc(Br)cc3)C(C(=O)O)=C[C@H]2CC2CCCC2)cc1`, the activity change, negative = inhibition is inactive: -1.88%. Take `Cc1cccc(-c2noc(CCC(=O)NC3CCCC3)n2)c1`: the activity change, negative = inhibition is inactive: -1.28%.

Regarding `CCOC(=O)c1ccc(N2C(=O)C(C)=C(C)C2=O)cc1`, the activity change, negative = inhibition is inactive: 11.2%.

For `COc1ccc(CCN=C(NS(=O)(=O)c2ccc(Cl)cc2)c2ccccc2)cc1`, the activity change, negative = inhibition was inactive: 7.32%.

As to `CCOC(=O)C1=C(C)NC(=O)NC1c1ccc(Br)s1` (stereo not drawn), the activity change, negative = inhibition is inactive: -6.07%. For the compound `CCC(=O)Nc1ccccc1Nc1cc(C#N)c(C#N)cc1[N+](=O)[O-]`, the activity change, negative = inhibition was inactive: 2.52%. `COc1ccc(NC(=O)CCc2ccccc2)cc1NC(=O)c1ccco1`: the activity change, negative = inhibition is inactive: 2.99%. With `Nn1cc(-c2ccccc2)nc1SCC(=O)N1CCN(S(=O)(=O)c2ccc3ccccc3c2)CC1`, the activity change, negative = inhibition is inactive: 5.59%.

Consider `CCOc1ccc(NC(=O)CN(C)CC(=O)Nc2cc(Cl)ccc2C#N)cc1OCC`, for which the activity change, negative = inhibition is inactive: 1.02%. Regarding `O=C(Nc1nncs1)c1ccc2c(c1)OCO2`, the activity change, negative = inhibition was inactive: 8.07%. For the compound `N=c1n(CC(=O)c2cccc([N+](=O)[O-])c2)c2ccccc2n1Cc1ccccc1`, the activity change, negative = inhibition was inactive: -9.38%. For `O=C(C1CCN(S(=O)(=O)c2ccc3ccccc3c2)CC1)N1CCN(c2ncccn2)CC1`, the activity change, negative = inhibition was inactive: -5.05%. Regarding `COc1ccc2c(C(=O)NCCCCO)c(-c3ccc(S(C)(=O)=O)cc3)sc2c1`, the activity change, negative = inhibition is inactive: 3.4%. As for `CC(=O)Nc1sc2c(c1CN1CCN(C)CC1)CCCC2`, the activity change, negative = inhibition is inactive: 6.9%. For `COCCCNC(=O)CC1C[C@H](C(=O)N2CCOCC2)[C@@]2(C)c3[nH]c4ccccc4c3CCN2C1=O` (stereo partly drawn), the activity change, negative = inhibition is inactive: 1.15%. For `COCCn1c(SCC(=O)Nc2cc(C(C)(C)C)nn2-c2ccccc2)nc2ccccc2c1=O` the value was inactive: 4.81%; for `CCN(C[C@H]1N[C@@](Cc2ccccc2)(C(=O)OC)[C@H]2C(=O)N(C)C(=O)[C@@H]12)S(=O)(=O)c1ccccc1`, inactive: 6.98%.
